PubChem BioAssay AID504847 (National Center for Advancing Translational Sciences (NCATS), 2011)
In all, about 400,000 compounds went through this assay and about 3,700 (0.93%) were called active. The inconclusive results got no clear call from the source; some entries with a clear call stand among them for comparison. Calls come from the whole dose curve; as a rule, active = well fitted inhibition curve with a large enough effect; inconclusive = small, poorly fitted or top-dose-only effect, or another doubt; inactive = no such curve, though single readings can be large or run the other way. Where the call is inconclusive, the potency comes from a doubtful curve fit.
% is set by controls: 0 for no effect and ±100 for the full control effect; potency is the fitted concentration of half-maximal effect.

Amino acid sequences for entries named in this document (tags omitted). A change or cut given only in a name is not applied to a line headed by its entry.
UniProt P11473: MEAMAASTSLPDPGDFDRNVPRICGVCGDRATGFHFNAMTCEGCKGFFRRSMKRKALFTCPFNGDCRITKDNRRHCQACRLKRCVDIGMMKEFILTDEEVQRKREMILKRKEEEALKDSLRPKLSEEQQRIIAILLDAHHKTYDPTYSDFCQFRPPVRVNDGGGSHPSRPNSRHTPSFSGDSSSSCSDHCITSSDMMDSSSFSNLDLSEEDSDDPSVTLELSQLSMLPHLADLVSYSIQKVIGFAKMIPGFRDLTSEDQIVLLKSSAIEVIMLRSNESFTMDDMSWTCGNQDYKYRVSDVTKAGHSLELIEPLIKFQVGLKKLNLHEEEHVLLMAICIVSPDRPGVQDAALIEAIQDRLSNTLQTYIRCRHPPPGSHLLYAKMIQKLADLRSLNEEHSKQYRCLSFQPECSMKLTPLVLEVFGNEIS

What follows are compounds tested against Vitamin D3 receptor (Homo sapiens) (UniProt P11473) (assay: Inhibitors of the vitamin D receptor (VDR): qHTS). Conditions: VDR-SRC2-3 peptide fluorescence polarization, 2 h; max response, negative = inhibition: hits give low values.
How it was run: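 The screen uses fluorescence polarization to detect compounds that interfere with recruitment of the SRC2-3 coactivator peptide to VDR; plates are read after 2 h at room temperature.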
With `O=c1c(C(c2ccc(F)cc2)c2c(O)nc3n(c2=O)CCS3)c(O)nc2n1CCS2` the Potency was inconclusive: 89.1 µM [inhibitor, single point].
In the case of `CCC(=O)N(CCC(c1ccccc1)c1ccco1)Cc1cccs1` (configuration not stated), the Potency is reported as inconclusive: 89.1 µM [inhibitor, single point].
With `CC(C(=O)N1CCOCC1)c1ccc([N+](=O)[O-])cc1` (configuration not stated) the max response, negative = inhibition was inactive: -22.3%.
With `C/C=C1\COC(C(=O)NCCOCCO)(C(F)(F)F)C=C1C=C1CCCCC1` (configuration not stated) the Potency was inconclusive: 79.4 µM [inhibitor, partial curve].
With `COc1ccc(C2=CC(=O)N(Nc3ccccc3)C2=O)cc1` the Potency was inconclusive: 14.1 µM [inhibitor, full curve, poor fit].
With `CCCCOc1[nH]c2nc(-c3ccco3)n(Cc3ccco3)c(=N)c2c1C#N` the Potency was inconclusive: 79.4 µM [inhibitor, single point].
`C/C(=N/NS(=O)(=O)c1ccc(C(C)C)cc1)c1ccncc1` was tested, and the max response, negative = inhibition was inactive: -5.69%.
In the case of `Oc1ccc(NCc2cccc(OCc3ccccc3)c2)cc1`, the Potency is reported as inconclusive: 89.1 µM [inhibitor, single point].
For `COCCn1c(SCC(=O)Nc2ccc(OC)cc2OC)nc2ccccc2c1=O`, the Potency was inconclusive: 89.1 µM [inhibitor, single point].
`Cc1[nH]c2ccc(Br)cc2c(=S)c1C/C=C/Cl` was tested, and the Potency was inconclusive: 28.2 µM [inhibitor, single point].
In the case of `COc1ccc(C2CC(c3ccc(Cl)cc3)=NN2C(C)=O)cc1` (configuration not stated), the Potency is reported as inconclusive: 89.1 µM [inhibitor, single point].
`COC(=O)c1ccccc1NC(=O)NN1CCN(C)CC1` was tested, and the max response, negative = inhibition was inactive: -8.48%.
For `CC1=CC(C)(C)N(C(=O)CSc2nnc(N)s2)c2c(C)cc(C)cc21`, the max response, negative = inhibition was inactive: -12.3%.
With `CCOC(=O)c1ccc(N=Cc2c(O)c3ccccc3oc2=O)cc1` the Potency was inconclusive: 89.1 µM [inhibitor, single point].
With `CCOC(=O)N1CCc2c(sc(NC(=O)c3ccc(S(=O)(=O)N4CCCC4)cc3)c2C#N)C1` the Potency was inconclusive: 50.1 µM [inhibitor, partial curve, poor fit].
`COc1ccc(C2CC(c3ccccc3)=NN2C(=O)CSc2ncn[nH]2)cc1` (configuration not stated) was tested, and the max response, negative = inhibition was inactive: 0.472%.
For `Cc1c(Cl)cccc1NC(=O)CSC(N)=O`, the Potency was inconclusive: 35.5 µM [inhibitor, full curve].
With `COc1ccccc1/C=C1\Cc2ccccc2C1=O` the max response, negative = inhibition was inactive: -4.25%.
In the case of `CSc1ccccc1NC(=O)CN(C)Cc1c(O)ccc2ccccc12`, the Potency is reported as inconclusive: 89.1 µM [inhibitor, partial curve].
For `Cc1ccc(NC(=O)COC(=O)CCc2ccc(S(=O)(=O)N3CCOCC3)cc2)cc1C`, the Potency was inconclusive: 79.4 µM [inhibitor, single point].
`COc1ccc(Cl)cc1NC(=S)N(CCCN1CCOCC1)Cc1cn(C)c2ccccc12` was tested, and the Potency was inconclusive: 89.1 µM [inhibitor, single point].
With `COc1ccc(C(=O)Nc2cccc3c2CCCC3)cc1` the Potency was inconclusive: 10 µM [inhibitor, partial curve, poor fit].
With `CCOCC(=O)Nc1nnc(COc2ccc(Cl)cc2)s1` the Potency was active: 79.4 µM.
With `COc1ccc(N=C2C(=Nc3ccc(OC)cc3)N(c3ccc(OC)cc3)C(=S)N2C(=O)c2ccc(OC)cc2)cc1` the Potency was inconclusive: 79.4 µM [inhibitor, partial curve, poor fit].
With `COc1cccc(OC)c1C(=O)Nc1ccc2c(c1)CCCN2S(=O)(=O)c1ccc(C)cc1` the Potency was inconclusive: 22.4 µM [inhibitor, single point].
`COc1ccc(C(C[N+](=O)[O-])c2c(C)[nH]n(-c3ccccc3)c2=O)cc1` (configuration not stated) was tested, and the Potency was inconclusive: 31.6 µM [inhibitor, partial curve, poor fit].
`COc1cc(-c2c(C#N)c(=O)[nH]c3c2c(C)nn3-c2ccccc2)ccc1O` was tested, and the Potency was inconclusive: 89.1 µM [inhibitor, single point].
With `CC(C)c1ccc(NC(=O)NC2(C(=O)NCc3cccnc3)CCCCC2)cc1` the max response, negative = inhibition was inactive: -17.5%.
With `CCOC(=O)Cc1ccc(NCc2ccc(Cl)cc2)cc1` the Potency was inconclusive: 89.1 µM [inhibitor, single point].
In the case of `COCCCNC(=O)/C(C#N)=C/c1c(N2CCN(c3ccc(OC)cc3)CC2)nc2c(C)cccn2c1=O`, the max response, negative = inhibition is reported as inactive: -17.5%.
With `CC(=O)c1cccc(Nc2nc(-c3sc(N)nc3C)cs2)c1` the Potency was inconclusive: 70.8 µM [inhibitor, partial curve, poor fit].
In the case of `O=C(c1cc(-c2ccc(O)cc2)on1)N1CCN(c2ccc(F)cc2)CC1`, the max response, negative = inhibition is reported as inactive: -19%.
In the case of `Nc1[nH]n(-c2ccccc2)c(=O)c1N=Nc1ccc2ncsc2c1`, the Potency is reported as inconclusive: 28.2 µM [inhibitor, partial curve, poor fit].
In the case of `CSC(SC)=C(C#N)C(=O)c1ccccc1`, the Potency is reported as inconclusive: 50.1 µM [inhibitor, partial curve, poor fit].
`Cn1c(=O)c2c(nc(NC3CCCCC3)n2Cc2ccccc2)n(C)c1=O` was tested, and the Potency was inconclusive: 50.1 µM [inhibitor, partial curve, poor fit].
`O=C1CC2C(CC(OC(=O)c3ccc(-c4ccccc4)cc3)C2CO)O1` (configuration not stated) was tested, and the max response, negative = inhibition was inactive: -0.324%.
`C/C=C1\COC(C(=O)NCc2ccncc2)(C(F)(F)F)C=C1C=C1CCCCC1` (configuration not stated) was tested, and the Potency was inconclusive: 100 µM [inhibitor, single point].
In the case of `Cc1ccc(NC(=O)COC(=O)C2=NN(c3ccccc3)C(=O)CC2)c(Br)c1`, the max response, negative = inhibition is reported as inactive: 0.968%.
`CC1(C)C(=O)Nc2ccccc2N1C(=O)COC(=O)CNS(=O)(=O)c1ccc(F)c(F)c1F` was tested, and the Potency was inconclusive: 39.8 µM [inhibitor, single point].
In the case of `CCOc1ccc(C(=O)CSCCC(=O)O)cc1`, the Potency is reported as inconclusive: 50.1 µM [inhibitor, partial curve, poor fit].
With `CCOC(=O)c1sc(N)c(C(=O)Nc2ccccc2OC)c1C` the Potency was active: 70.8 µM.
In the case of `CC1=C(C)/C(=N\OS(=O)(=O)c2ccc(C)cc2)C=CC1=O`, the Potency is reported as active: 28.2 µM.
